For at least one entry, the source does not settle the construct or the ends of the probe. Where cells or extracts were used, other partners may take part. No signal at the amounts used counts as a negative. At least one verdict rests on a figure or table, not on a statement of the authors.

Consider three sequences from publication PMC10964525.

For data set [1], the target named is PDGFRbeta (endogenous, on adipose-derived MSCs, EGFR-/PDGFRb+) (human) (UniProt P09619). The data set is described as follows: confocal uptake of aptamer-nanoparticles by cells. Conditions: MSCs, 60 min, multivalent nanoparticle; 2'-fluoro pyrimidines; 5' NH2-C6 amide-linked to nanoparticle; Cell uptake only (no purified-protein binding): culture medium, 37 C, 30-60 min, nanoparticles at 5 uM Iren; protein on the cell surface; label: Iren-AuSiO2 nanoparticle (Ir luminescence).

In data set [2] the target is EGFR (endogenous, on A431 / BT-474 cells, EGFR+/PDGFRb-) (human) (UniProt P00533). The data set is described as follows: confocal uptake of aptamer-nanoparticles by cells. The note with it: A431 and BT-474 cells, 60 min, multivalent nanoparticle; 2'-fluoro pyrimidines; 5' NH2-C6 amide-linked to nanoparticle; Cell uptake only (no purified-protein binding): culture medium, 37 C, 30-60 min, nanoparticles at 5 uM Iren; protein on the cell surface; label: Iren-AuSiO2 nanoparticle (Ir luminescence).

Regarding “GCCUUAGUAACGUGCUUUGAUGUCGAUUCGACAGGAGGC [CL4]”, the values for the binding result in data set [1] and in data set [2] were “no binding” and “binds”, respectively.
Consider “UUCGUACCGGGUAGGUUGGCUUGCACAUAGAACGUGUCA [Scr (scrambled CL4)]”, for which the binding result in data set [1] and in data set [2] was “no binding” in each case.
Take “UGUCGUGGGGCAUCGAGUAAAUGCAAUUCGACA [Gint4.T]”: the binding result was “binds” in data set [1] and “no binding” in data set [2].
